Measurements reported in US20240392239A1, “METHODS FOR MODULATING CELL PLURIPOTENCY AND SELF-RENEWAL PROPERTY” (Memorial Sloan-Kettering Cancer Center, priority 2021, published 2024).
For at least one compound, name, drawing or mass did not settle the structure.

How the values were obtained:
[1] = system: mouse embryonic stem cells (ESCs); assay: [U-13C] glucose tracing of TCA cycle metabolites in mouse embryonic stem cells; format: cell-based
Experimental: Metabolic analyses. […] For mass spectrometric analyses in C2C12 myoblasts and NSCLC cell lines, cells were seeded in six-well plates and medium was changed 24 h later. […] 48 h prior to harvest, myoblasts were supplemented with 1 μg/mL doxycycline to induce shRNA expression. For analysis of myotubes, cells seeded in six-well plates were grown to 100% confluence for 3 days, washed with PBS and changed to differentiation medium that was refreshed every day for 7 days. On the final day of differentiation, cells were washed with PBS and changed to experimental medium described above. […] Samples were analyzed using an Agilent 7890A Gas Chromatograph coupled to an Agilent […] mass selective detector. […] Peaks representing compounds of interest were extracted and integrated using the MassHunter software v.B.08 (Agilent Technologies) and then normalized to both the internal standard (d5-2HG) peak area and protein content of triplicate samples as determined by bicinchoninic acid assay (Thermo Fisher Scientific). Steady-state metabolite pool levels were derived by quantifying the following ions: d5-2HG, 354 m/z; αKG, 304 […]; citrate, 465 m/z; fumarate, 245 m/z; malate, 335 m/z; and succinate, 247 m/z. […] Enrichment of [^13C] or [^2H] was assessed by quantifying the abundance of the following ions: aspartate, 334-346 m/z; citrate, 465-482 m/z; fumarate, 245-254 m/z; and malate, 335-347 m/z. […]

[2] = system: C2C12 myoblasts; assay: [U-13C] glucose tracing of TCA cycle metabolites in C2C12 myoblasts; format: cell-based, mouse
Experimental: C2C12 cells were maintained at sub-confluence as myoblasts unless otherwise noted. All myoblast experiments were performed in high glucose DMEM supplemented with 10% FBS and 4 mM L-glutamine. For differentiation into myotubes, C2C12 cells were grown to 100% confluence for three days and then washed with PBS and changed into differentiation medium composed of high glucose DMEM supplemented with 2% horse serum (catalog no. 26050070; Gibco), 4 mM L-glutamine and 100× insulin-transferrin-selenium-ethanolamine (ITS-X; catalog no. 51500056; Gibco) for the indicated length of time (3, 5 or 7 days). Differentiation medium was refreshed every day. For non-small cell lung cancer (NSCLC) cell line studies, H2170, A549, and Calu-1 cell lines were thawed and passaged in RPMI-1640 supplemented with 10% FBS before being transitioned to high glucose DMEM supplemented with 10% FBS and 4 mM L-glutamine for several passages prior to experiments. […]
Gas chromatography-mass spectrometry. […] Samples were analyzed using an Agilent 7890A Gas Chromatograph coupled to an Agilent 5977C mass selective detector. […] Peaks representing compounds of interest were extracted and integrated using the MassHunter software v.B.08 (Agilent Technologies) and then normalized to both the internal standard (d5-2HG) peak area and protein content of triplicate samples as determined by bicinchoninic acid assay (Thermo Fisher Scientific). […]

## O=C(O)C(Cl)Cl [dichloroacetate]
[1]; 5 mM DCA for 24 h (FIG. 10E)
  incorporation of glucose-derived carbons into citrate and downstream metabolites: increased
[1]; 5 mM DCA for 24 h (FIG. 10F)
  mal+2/cit+2 ratio: elevated
[2]; 5 mM DCA for 24 h (FIG. 10C)
  incorporation of glucose-derived carbons into citrate and downstream metabolites: increased
[2]; 5 mM DCA for 24 h (FIG. 10D)
  mal+2/cit+2 ratio: elevated
